The values that follow come from PMC7145659.

Sequences of proteins named here, by UniProt entry; tags and fusion partners are left off.
UniProt P54578: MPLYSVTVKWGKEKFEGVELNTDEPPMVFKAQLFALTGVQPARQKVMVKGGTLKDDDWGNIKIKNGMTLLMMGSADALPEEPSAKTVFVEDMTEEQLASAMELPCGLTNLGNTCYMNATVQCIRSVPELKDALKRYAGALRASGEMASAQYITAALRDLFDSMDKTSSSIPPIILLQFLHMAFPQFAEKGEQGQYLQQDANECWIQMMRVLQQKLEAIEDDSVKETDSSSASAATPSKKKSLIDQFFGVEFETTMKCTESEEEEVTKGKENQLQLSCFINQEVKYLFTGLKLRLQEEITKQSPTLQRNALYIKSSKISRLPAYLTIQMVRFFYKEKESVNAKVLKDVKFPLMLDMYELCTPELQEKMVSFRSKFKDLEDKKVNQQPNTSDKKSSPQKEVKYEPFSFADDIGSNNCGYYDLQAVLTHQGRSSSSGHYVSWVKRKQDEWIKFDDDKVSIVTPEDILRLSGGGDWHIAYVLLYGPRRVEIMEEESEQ
UniProt P12956: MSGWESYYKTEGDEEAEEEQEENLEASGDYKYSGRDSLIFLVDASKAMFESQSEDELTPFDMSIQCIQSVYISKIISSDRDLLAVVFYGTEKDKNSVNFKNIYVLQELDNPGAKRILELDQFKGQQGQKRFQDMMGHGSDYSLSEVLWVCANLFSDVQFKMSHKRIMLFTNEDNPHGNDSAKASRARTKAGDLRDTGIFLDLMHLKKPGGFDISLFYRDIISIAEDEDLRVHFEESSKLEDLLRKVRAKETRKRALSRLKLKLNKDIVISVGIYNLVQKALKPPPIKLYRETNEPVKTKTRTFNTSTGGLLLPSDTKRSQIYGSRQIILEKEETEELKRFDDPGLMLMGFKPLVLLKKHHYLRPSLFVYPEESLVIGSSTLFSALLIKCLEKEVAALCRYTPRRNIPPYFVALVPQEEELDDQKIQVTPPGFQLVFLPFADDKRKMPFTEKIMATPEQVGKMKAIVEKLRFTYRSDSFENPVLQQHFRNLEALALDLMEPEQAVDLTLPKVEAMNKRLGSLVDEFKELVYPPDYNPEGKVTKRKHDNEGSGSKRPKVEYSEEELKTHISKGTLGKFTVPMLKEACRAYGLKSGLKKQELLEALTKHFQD

No constants are given. Whether binding was seen depends on the method and setting. In cells and extracts the contact can be indirect. Some results given as binding are weak or reduced against the parent protein; the word gives no strength.

The target of test [1] is Flag-HA-USP14 (expressed in HEK 293T cells) (human) (UniProt P54578). Briefly: co-IP; HEK 293T cells co-expressing Flag-HA-USP14 and EGFP-Flag-Ku70; IP with anti-HA, immunoblot; lysis buffer 50 mM Tris pH 7.4, 120 mM NaCl, 5 mM EDTA, 0.1% NP40, 1 mM DTT. A general note: A western blot detects proteins with antibodies after separation by electrophoresis.
In test [2] the target is USP14, endogenous (LNCaP cells) (human (endogenous in LNCaP)) (UniProt P54578). Briefly: co-IP; endogenous USP14 immunoprecipitated from LNCaP cells, with or without 4 Gy IR, immunoblot for Ku70.

“EGFP-Flag-Ku70 (from UniProt P12956 1-609)”: in test [1], the binding result is listed as “binds”.

Take “Ku70, endogenous (LNCaP cells) (from UniProt P12956 1-609)”: in test [2], the binding result is on record as “binds”.
